Among the data in paper PMC9681215 are binding values, retold here.

These are yes or no findings as the source states them, for the method shown. In cells and extracts the contact can be indirect. Some binding calls cover weakened binding; strength is not graded here. Tags and fused reporters may be left off the sequences shown.

Test [1] concerns the target T1, Sloth1-FLAG (D. melanogaster) (UniProt Q9W3T5).
T1 sequence: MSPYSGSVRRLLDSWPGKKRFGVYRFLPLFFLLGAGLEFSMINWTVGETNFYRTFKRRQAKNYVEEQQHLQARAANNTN
Nature of the test: co-IP; FLAG-tagged bait held on magnetic anti-FLAG beads, 2 hr at 4 °C; lysate of mitochondria isolated from transfected S2R+ cells; 50 mM Tris-HCl pH 7.4, 150 mM NaCl, 10% glycerol, 20 mM MgCl2, 1% digitonin; eluted with 3xFLAG peptide; HA-tagged prey detected by western blot. In general terms: In western blotting, separated proteins are transferred to a membrane and probed.

Test [2] concerns the target T2, Sloth2-FLAG (D. melanogaster) (UniProt B7Z0X7).
T2 sequence: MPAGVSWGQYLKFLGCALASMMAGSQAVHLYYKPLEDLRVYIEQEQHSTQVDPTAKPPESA
The test is described as above.

B1: RFeSP-HA (protein, UniProt Q9VQ29 36-230)
chain: AHTDLQVPDFSAYRRESVKDSRRRNDTAEERKAFSYLMVGAGAVGGAYAAKGLVNTFIGSMSASAEVLAMAKIEIKLSDIPEGKSVTFKWRGKPLFIRHRTAAEIETERNVPTSTLRDPEADDQRVIKPEWLVVIGVCTHLGCVPIANAGDWGGYYCPCHGSHYDASGRIRKGPAPLNLEVPTHEFPNEGLLVVG
B1: the binding entry in test [1] is on record as “binds”.

B2: Sloth1-HA (peptide, UniProt Q9W3T5 1-79)
chain: MSPYSGSVRRLLDSWPGKKRFGVYRFLPLFFLLGAGLEFSMINWTVGETNFYRTFKRRQAKNYVEEQQHLQARAANNTN
Turning to B2, in test [2], the binding result was “binds”.

B3: Sloth2-HA (peptide, UniProt B7Z0X7 1-61)
chain: MPAGVSWGQYLKFLGCALASMMAGSQAVHLYYKPLEDLRVYIEQEQHSTQVDPTAKPPESA
In the case of B3, the binding entry in test [1] is “binds”.

B4: CG10075-HA (protein, UniProt Q9VRZ7 1-259)
chain: MQCTRAVARLAGGLARTAWATQHTYKHRPAILGLLEQPCRLCSSTGVVDNTNKTKPGTAEAAEGGILKRVLNKVGFTPNTKARLKVTSHLLYESVADKINYVTFFRDFNLPNTFNSWFLVTELHVWLLLMRSMAEGSETGEDGRFLRNCIVEAMWGDVNTRAKKLGAHNPSRTRQQIETLSEQFQAALIAYDEGIMSDDRVLACALWRRFFEMNCDDYAQIERLVKYVRQQASMLDSLPRDQFIVKPKVAWLELDKCKV
As for B4, in test [1], the binding entry was “binds”.
